# Primary screen of a compound library

Sequences of proteins named here, by UniProt entry; tags and fusion partners are left off.
UniProt E9BF75, entry or part of it: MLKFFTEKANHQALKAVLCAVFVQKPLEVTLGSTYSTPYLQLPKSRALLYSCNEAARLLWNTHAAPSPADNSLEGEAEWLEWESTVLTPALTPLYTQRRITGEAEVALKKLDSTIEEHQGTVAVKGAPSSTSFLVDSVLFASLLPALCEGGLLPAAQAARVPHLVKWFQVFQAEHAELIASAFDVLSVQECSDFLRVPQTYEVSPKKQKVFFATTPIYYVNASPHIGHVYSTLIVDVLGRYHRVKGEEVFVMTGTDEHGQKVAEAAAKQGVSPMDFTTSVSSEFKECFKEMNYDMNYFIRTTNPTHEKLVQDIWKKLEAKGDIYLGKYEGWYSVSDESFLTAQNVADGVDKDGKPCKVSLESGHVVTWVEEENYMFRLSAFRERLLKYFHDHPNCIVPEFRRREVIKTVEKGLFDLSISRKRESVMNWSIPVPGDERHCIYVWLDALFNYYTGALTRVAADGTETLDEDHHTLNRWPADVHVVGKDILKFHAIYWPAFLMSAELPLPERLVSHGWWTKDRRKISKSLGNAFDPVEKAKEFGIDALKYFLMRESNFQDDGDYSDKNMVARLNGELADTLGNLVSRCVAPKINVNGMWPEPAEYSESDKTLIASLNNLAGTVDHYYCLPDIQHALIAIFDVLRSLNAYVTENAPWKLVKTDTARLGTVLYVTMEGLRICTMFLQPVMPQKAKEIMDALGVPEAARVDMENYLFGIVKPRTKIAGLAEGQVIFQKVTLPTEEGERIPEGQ

Measurements from “University of Dundee, Small-Polar-MMV Screening Library” (2021), ChEMBL document CHEMBL3988442.

Results are percentages, as filed.
How 0% and 100% were set is not recorded. Most values in the screen are low, and negative values occur.
Compounds were drawn at random from those tested, without regard to their results.

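Primary screen of methionyl-tRNA synthetase; the read-out is not stated. Target: Methionyl-tRNA synthetase (putative), Leishmania donovani (UniProt E9BF75). The test concentration is not given. Values are per cent inhibition. Size under these conditions: about 68,000 compounds, about 24 of them at 50% or above in at least one test.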

structure,inhibition
Cc1ccc(OCCN(C)Cc2ccc(S(=O)(=O)N(C)C)o2)cc1,7.508
CCc1ncncc1C(=O)N1CCCN(Cc2ccccc2C)CC1,19.43
O=C(CN1C(=O)CCCc2sccc21)NC1CCc2nccn2C1 (configuration not stated),11.65
COCC(=O)N1C[C@@H](CN2CCCN(C)CC2)[C@@H](CO)C1,14.99
COC(=O)CNC(=O)CSCc1nc(O)c2c(C)c(C)sc2n1,14.52
COCCN1CCN(CC(O)c2cc(OC)ccc2OC)CC1 (configuration not stated),1.928
CS(=O)(=O)NCc1cncc2c1CCN(CC1CCOC1)C2 (configuration not stated),6.767
CC(C)c1nnc2n1CCN(C(=O)c1ccccc1OCC1CC1)C2,14.14
Cc1ccc(C(=O)NCC(c2cnn(C)c2)N(C)C)c(O)c1 (configuration not stated),10.03
Cc1noc(C)c1CNC(=O)NCCOc1ccc(F)cc1F,10.99
COc1ccccc1CC(=O)NS(=O)(=O)c1ccc(NC(C)=O)cc1,22.16
CC(C)(C)NC(=O)Cn1cc(C(N)=O)c(-c2ccccc2)n1,11.56
O=S(=O)(NCc1ccccc1)NCc1nc(-c2ccncc2)n[nH]1,12.57
COc1ccnc(CN2CCC=C(C(C)NC(C)=O)C2)c1OC (configuration not stated),10.09
Cn1nc(Cn2ccnc2)c2c1CN(c1nccs1)C2,39.79
c1csc(CN(Cc2ccsc2)CC2CCCO2)n1 (configuration not stated),5.962
CNS(=O)(=O)c1ccc(CNC(=O)c2ccccn2)cc1,8.681
CC(COc1ccccc1)NCc1cn2ccccc2n1 (configuration not stated),6.479
Cc1csc(CCNC(=O)N2CCC(C(N)=O)CC2)n1,2.514
O=C(Nc1cccnc1)[C@@H]1CCO[C@@H]2CCN(Cc3cccnc3)C[C@@H]21,20.46
CN(C)c1nc(NCc2cccnc2N)ncc1F,9.415
c1cncc(CN2CCCC3(COCCN(c4cnccn4)C3)C2)c1 (configuration not stated),17.78
CCc1nc(C2CCCN2Cc2nc(C3CC3)no2)no1 (configuration not stated),1.575
Cc1ccc(OC2(C(=O)O)CCN(C(=O)c3ccc(F)cc3)CC2)cn1,6.667
COc1cc(OCC(=O)NCCc2ccccc2)cc(OC)c1OC,10.53
CCO[C@H]1CCN(S(=O)(=O)c2cn(C)cn2)[C@H]1Cc1ccccc1,14.01
O=C(CCN1CCOCC1)NC(Cc1ccsc1)c1nccs1 (configuration not stated),11.56
Cc1noc(C[C@@H]2COC[C@H]3CN(S(C)(=O)=O)C[C@@H]23)n1,14.98
CN(C)CCn1ccc2ccc(NC(=O)c3ccncc3F)cc21,13.03
CCCc1ccc(OC23CCCN(CC2)C3)c(OC)c1 (configuration not stated),30.11
CN(CC1CC1)C(=O)c1cc2c(c(S(N)(=O)=O)c1)CCC2,9.582
COCC1COCCC12CCN(S(=O)(=O)c1ccccc1)CC2 (configuration not stated),10.44
CCC(Nc1ncccn1)c1cccnc1 (configuration not stated),6.494
CCN1CC2(CC1=O)CN(C(=O)c1ccco1)CCN(C(=O)C(C)C)C2 (configuration not stated),18.12
CS(=O)(=O)N1Cc2cnn(CC3CC3)c2C(COCC2CC2)C1 (configuration not stated),11.28
CCN(CC)C(C(=O)Nc1ccc2c(c1)CCC(=O)N2)c1ccccc1 (configuration not stated),21.82
CC(=O)N[C@@H](C)C(=O)NCc1cccnc1Oc1ccccc1F,7.865
CCC1CCCCN1S(=O)(=O)c1c(N)noc1C (configuration not stated),-2.32
CC(C(=O)NCC(C)(C)c1ccc(Br)cc1)n1cncn1 (configuration not stated),12.7
CCc1ncc2c(n1)CN(Cc1nc(-c3cccnc3)no1)CC2,23.43
CN(C)S(=O)(=O)N(C)C(c1cccnc1)c1ccc(F)c(F)c1 (configuration not stated),1.393
CCCC(=O)N1CCCCC1C(=O)Nc1ccc(-c2nnc[nH]2)cc1 (configuration not stated),12.1
O=C(NCc1ccc2c(c1)CCCO2)c1ccc(C2CCNC2)cc1 (configuration not stated),11.54
Cc1nn(C)c(C)c1C1CCCN1C(=O)c1ccc(C(N)=O)cn1 (configuration not stated),17.46
Cc1cnc(CN2CCC(N(C)Cc3nnc(C)n3C)C2)cn1 (configuration not stated),7.117
Cc1ccc([C@]2(O)CC[C@H]3CN(Cc4ccncc4)C[C@H]32)nc1,-7.345
CO[C@H]1CCN(Cc2cnn(C)c2)[C@@H]2CN(Cc3cccnc3)C[C@H]12,9.544
NC(=O)C(NC(=O)COC1CCCCC1)c1ccccc1 (configuration not stated),17.37
O=C1CCC2(CCCN(C(=O)c3ccoc3)C2)CN1CCc1c[nH]cn1 (configuration not stated),8.602
CC/N=c1\nc(NCC)nc2n1C(O)(Nc1cccc(Cl)c1Cl)CS2 (configuration not stated),17.62
Cc1ccc(N2CCCC(N(C)Cc3noc(C4CC4)n3)C2)nn1 (configuration not stated),11.14
Cc1nn(C)c(Cl)c1C1CCCN1C(=O)c1ccncc1 (configuration not stated),6.667
CSCC(=O)N(C)Cc1noc(-c2ccccc2)n1,10.79

The first 5 entries again:

{"structure": "Cc1ccc(OCCN(C)Cc2ccc(S(=O)(=O)N(C)C)o2)cc1", "inhibition": 7.508}
{"structure": "CCc1ncncc1C(=O)N1CCCN(Cc2ccccc2C)CC1", "inhibition": 19.43}
{"structure": "O=C(CN1C(=O)CCCc2sccc21)NC1CCc2nccn2C1", "stereo": "configuration not stated", "inhibition": 11.65}
{"structure": "COCC(=O)N1C[C@@H](CN2CCCN(C)CC2)[C@@H](CO)C1", "inhibition": 14.99}
{"structure": "COC(=O)CNC(=O)CSCc1nc(O)c2c(C)c(C)sc2n1", "inhibition": 14.52}